Laboratory results published in publication PMC10450186.
The exact form of at least one protein or probe is not confirmed. For part of these data: A negative result means that nothing was seen under these conditions. For part of these data: Where a protein sequence is shown, tags need not be part of it. For part of these data: A weaker result is weaker than the reference pair of the same experiment. For part of these data: At least one verdict was read from the data and is not stated in words by the source.

Chains of the proteins cited; added tags and fusions are not shown. Lines headed by an entry give the natural chain unless they say otherwise; changes in a name come on top. Chains listed by the source or under a name are the forms on record and can include a tag or linker.
pmRPA-S4/8D&S33D S4D,S8D,S33D,RPA32 (human), one chain, as listed by the source S33D S33D, chain 2 of 3: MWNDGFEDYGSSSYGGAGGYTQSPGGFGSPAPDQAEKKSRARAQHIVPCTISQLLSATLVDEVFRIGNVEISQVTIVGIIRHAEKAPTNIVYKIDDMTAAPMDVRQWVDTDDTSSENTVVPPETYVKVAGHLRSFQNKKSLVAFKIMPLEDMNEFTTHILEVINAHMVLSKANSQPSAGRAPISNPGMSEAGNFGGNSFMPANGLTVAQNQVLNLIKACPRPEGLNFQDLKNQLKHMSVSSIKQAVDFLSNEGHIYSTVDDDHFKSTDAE
RPA-eGFP heterotrimer (human), one chain, as listed by the source, chain 3 of 3: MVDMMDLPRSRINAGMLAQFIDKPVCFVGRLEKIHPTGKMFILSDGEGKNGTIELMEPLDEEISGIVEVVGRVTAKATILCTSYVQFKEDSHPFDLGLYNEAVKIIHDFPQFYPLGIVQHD
RPA-eGFP heterotrimer (human), one chain, as listed by the source, chain 2 of 3: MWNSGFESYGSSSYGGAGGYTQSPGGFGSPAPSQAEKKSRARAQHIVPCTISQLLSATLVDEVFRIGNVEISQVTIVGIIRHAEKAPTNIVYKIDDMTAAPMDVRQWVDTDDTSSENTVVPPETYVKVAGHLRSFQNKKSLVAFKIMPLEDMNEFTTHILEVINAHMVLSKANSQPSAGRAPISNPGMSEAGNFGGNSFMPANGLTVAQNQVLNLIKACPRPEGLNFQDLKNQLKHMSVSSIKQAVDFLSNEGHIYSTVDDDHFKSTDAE

Assays:
NSMF WT = target: T1, NSMF WT (UniProt Q6X4W1); assay: EMSA; conditions: up to 3000 nM NSMF, EMSA: 50 mM Tris-HCl pH 7.5, 50 mM NaCl, 1 mM DTT, 0.01% Tween-20, 23°C, 10 nM labeled DNA, NSMF-DNA gels 1.5% agarose in 1xTBE at 4°C, recombinant protein
T1 sequence (looked up, limits assumed): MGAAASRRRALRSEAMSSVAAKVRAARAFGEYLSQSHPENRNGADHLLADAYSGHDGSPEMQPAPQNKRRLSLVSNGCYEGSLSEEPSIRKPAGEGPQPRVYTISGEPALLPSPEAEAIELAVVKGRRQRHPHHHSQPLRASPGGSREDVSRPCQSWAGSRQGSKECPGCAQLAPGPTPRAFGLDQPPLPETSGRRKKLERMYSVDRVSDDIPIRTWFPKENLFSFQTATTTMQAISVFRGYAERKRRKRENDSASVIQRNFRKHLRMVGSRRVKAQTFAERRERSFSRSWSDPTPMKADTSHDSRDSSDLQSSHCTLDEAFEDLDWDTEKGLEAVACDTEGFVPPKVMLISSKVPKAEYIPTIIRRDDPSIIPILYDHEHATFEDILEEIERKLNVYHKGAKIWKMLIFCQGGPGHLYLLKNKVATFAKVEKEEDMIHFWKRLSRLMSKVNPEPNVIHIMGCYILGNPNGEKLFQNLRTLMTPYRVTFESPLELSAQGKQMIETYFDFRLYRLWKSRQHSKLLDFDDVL

[1] = test system: RPA-eGFP heterotrimer (human); assay: single-molecule photobleaching; conditions: +NSMF, recombinant protein, protein details: 6xHis, eGFP at C-term of RPA70, label: 5' biotin, single-stranded DNA
[2] = test system: pmRPA-S4/8D&S33D S4D,S8D,S33D,RPA32 (human); assay: EMSA; conditions: EMSA: 50 mM Tris-HCl pH 7.5, 50 mM NaCl, 1 mM DTT, 0.01% Tween-20, 23°C, 10 nM labeled DNA; NSMF-DNA gels 1.5% agarose in 1xTBE at 4°C; recombinant protein; protein details: 7xHis; label: 5' Cy5; single-stranded DNA
[3] = test system: DBM-RPA W107A,F135A,RPA32 (human); assay: EMSA; conditions: +NSMF, free DNA reappears; EMSA: 50 mM Tris-HCl pH 7.5, 50 mM NaCl, 1 mM DTT, 0.01% Tween-20, 23°C, 10 nM labeled DNA; NSMF-DNA gels 1.5% agarose in 1xTBE at 4°C; recombinant protein; label: 5' Cy5; single-stranded DNA
[4] = test system: pRPA (in vitro phosphorylated RPA) (human); assay: EMSA; conditions: EMSA: 50 mM Tris-HCl pH 7.5, 50 mM NaCl, 1 mM DTT, 0.01% Tween-20, 23°C, 10 nM labeled DNA, NSMF-DNA gels 1.5% agarose in 1xTBE at 4°C, recombinant protein, protein details: 7xHis, label: 5' Cy5, single-stranded DNA
[5] = test system: RPA heterotrimer WT (RPA70/RPA32/RPA14) (human); assay: EMSA; conditions: EMSA: 50 mM Tris-HCl pH 7.5, 50 mM NaCl, 1 mM DTT, 0.01% Tween-20, 23°C, 10 nM labeled DNA, NSMF-DNA gels 1.5% agarose in 1xTBE at 4°C, recombinant protein, protein details: untagged, 7xHis version also made, label: 5' Cy5, single-stranded DNA
[6] = test system: RPA-eGFP heterotrimer (human); assay: single-molecule fluorescence; conditions: recombinant protein, protein details: 6xHis, eGFP at C-term of RPA70, label: 5' biotin, single-stranded DNA
[7] = test system: pmRPA-S33D S33D,RPA32 (human); assay: EMSA; conditions: EMSA: 50 mM Tris-HCl pH 7.5, 50 mM NaCl, 1 mM DTT, 0.01% Tween-20, 23°C, 10 nM labeled DNA; NSMF-DNA gels 1.5% agarose in 1xTBE at 4°C; recombinant protein; protein details: 7xHis; label: 5' Cy5; single-stranded DNA

Question: Does “GCCAGGGACGAGGTGAACCTGCAGGTGGGCGGCTACTACTTAGATGTCATCCGAGGCTTATTGGTAGAATTCGGCAGCGTCATGCGACGGC / GCCGTCGCATGACGCTGCCGAATTCTACCACGCGATTCATACCTGTCGTGCCAGCTGCTTTGCCCACCTGCAGGTTCACCTCGTCCCTGGC [Bubble]” bind (NSMF WT)?
Answer: no binding

Question: Does “GCCAGGGACGAGGTGAACCTGCAGGTGGGCAAAGCAGCTGGCACGACAGGTATGAATCGCGTGGTAGAATTCGGCAGCGTCATGCGACGGC (double strand) [Homoduplex]” bind (NSMF WT; label: 5' Cy5 on strand 1)?
Answer: no binding

Question: Does “TATTCATTGTTTTACCTATTGTACCTTATTCTTAATTCATTTTACTAATCATTTACGAGT [Biotinylated 60-nt ssDNA]” bind ([1]; two RPA per DNA)?
Answer: binds more weakly

Question: Does “TTTTTTTTTTTTTTTTTTTTTTTTTTTTTT [30-nt ssDNA (dT30)]” bind [2]?
Answer: binds

Question: Does “TTTTTTTTTTTTTTTTTTTTTTTTTTTTTT [30-nt ssDNA (dT30)]” bind [3]?
Answer: binds more weakly

Question: Does “TTTTTTTTTTTTTTTTTTTTTTTTTTTTTT [30-nt ssDNA (dT30)]” bind ([4]; one shifted band)?
Answer: binds

Question: Does “TTTTTTTTTTTTTTTTTTTTTTTTTTTTTT [30-nt ssDNA (dT30)]” bind ([5]; 150 nM RPA +NSMF, lowest-mobility band lost)?
Answer: binds more weakly

Question: Does “TTTTTTTTTTTTTTTTTTTTTTTTTTTTTT [Biotinylated 30-nt ssDNA]” bind ([1]; one RPA per DNA)?
Answer: binds more weakly

Question: Does “TTTTTTTTTTTTTT [Biotinylated 14-nt ssDNA]” bind ([6]; +NSMF, almost all puncta lost)?
Answer: no binding

Question: Does “TTTTTTTTTTTTTT [Biotinylated 14-nt ssDNA]” bind ([6]; +NSMF-ΔD2, not detached)?
Answer: binds

Question: Does “TATTCATTGTTTTACCTATTGTACCTTATTCTTAATTCATTTTACTAATCATTTACGAGT [60-nt ssDNA]” bind [2]?
Answer: binds

Question: Does “TATTCATTGTTTTACCTATTGTACCTTATTCTTAATTCATTTTACTAATCATTTACGAGT [60-nt ssDNA]” bind ([4]; two shifted bands)?
Answer: binds

Question: Does “TATTCATTGTTTTACCTATTGTACCTTATTCTTAATTCATTTTACTAATCATTTACGAGT [60-nt ssDNA]” bind ([5]; +NSMF, lowest-mobility band lost)?
Answer: binds more weakly

Question: Does “GCCAGGGACGAGGTGAACCTGCAGGTGGGCGGCTACTACTTAGATGTCATCCGAGGCTTATTGGTAGAATTCGGCAGCGTCATGCGACGGC / GCCGTCGCATGACGCTGCCGAATTCTACCACGCGATTCATACCTGTCGTGCCAGCTGCTTTGCCCACCTGCAGGTTCACCTCGTCCCTGGC / GCAGCTGGCACGACAGGTATGAATC [D-loop]” bind (NSMF WT; label: Cy3 on Oligo1, Cy5 on D-loop oligo)?
Answer: no binding

Question: Does “CTCGAGGATGTATATATCTGACACGTGCCTGGAGACTAGGGAGTAATCCCCTTGGCGGTTAAAACGCGGGGGACAGCGCGTACGTGCGTTTAAGCGGTGCTAGAGCTGTCTACGACCAATTGAGCGGCCTCGGCACCGGGATTCT / AGAATCCCGGTGCCGAGGCCGCTCAATTGGTCGTAGACA / GCCAAGGGGATTACTCCCTAGTCTCCAGGCACGTGTCAGATATATACATC [ssDNA gap]” bind (NSMF WT; label: Cy5 per Fig S3 legend, position not given)?
Answer: no binding

Question: Does TTTTTTTTTTTTTT [14-nt ssDNA (dT14)] bind [2]?
Answer: binds

Question: Does TTTTTTTTTTTTTT [14-nt ssDNA (dT14)] bind [7]?
Answer: binds

Question: Does TTTTTTTTTTTTTT [14-nt ssDNA (dT14)] bind ([5]; +NSMF, RPA completely released)?
Answer: no binding
